Test results as given in PMC9682256.
No constants are given. Whether binding was seen depends on the method and setting. For some of these results: In cells and extracts the contact can be indirect. Some entries that bind do so weakly or less than the wild type. For some of these results: Sequences can lack the tags named with a protein.

B1: Sco2 (protein, UniProt Q8VCL2 42-255)
chain: QGPGLRTRLLITALFGAGLGWAWLAARAEKEQWRQQQRTEALRQAAVGQGDFSLLDHKGQPRCKADFRGQWVLMYFGFTHCPDICPDELEKLVQVVRKLEAEPDLPLVQPVFITVDPERDDVAAMARYVQEFHPRLLGLTGSTEQVAHASRNYRVYYSAGPKDEDQDYIVDHSIAIYLLNPDGLFTDYYGRSRSAEQIVESIRRHIAAFHSVLP
B2: murine PiC2 (SLC25A3), mitochondrial phosphate carrier / Cu+ transporter (protein, UniProt Q8VEM8 46-357)
chain: AVEEYSCEFGSMKYYALCGFGGVLSCGLTHTAVVPLDLVKCRMQVDPQKYKGIFNGFSITLKEDGVRGLAKGWAPTLIGYSMQGLCKFGFYEVFKALYSNILGEENTYLWRTSLYLASSASAEFFADIALAPMEAAKVRIQTQPGYANTLREAVPKMYKEEGLNAFYKGVAPLWMRQIPYTMMKFACFERTVEALYKFVVPKPRSECTKAEQLVVTFVAGYIAGVFCAIVSHPADSVVSVLNKEKGSTASQVLQRLGFRGVWKGLFARIIMIGTLTALQWFIYDSVKVYFRLPRPPPPEMPESLKKKLGLTE
B3: human PiC2 isoform A, N-terminal hexa-histidine tag (protein, UniProt Q00325-1 50-362)
chain: AVEEQYSCDYGSGRFFILCGLGGIISCGTTHTALVPLDLVKCRMQVDPQKYKGIFNGFSVTLKEDGVRGLAKGWAPTFLGYSMQGLCKFGFYEVFKVLYSNMLGEENTYLWRTSLYLAASASAEFFADIALAPMEAAKVRIQTQPGYANTLRDAAPKMYKEEGLKAFYKGVAPLWMRQIPYTMMKFACFERTVEALYKFVVPKPRSECSKPEQLVVTFVAGYIAGVFCAIVSHPADSVVSVLNKEKGSSASLVLKRLGFKGVWKGLFARIIMIGTLTALQWFIYDSVKVYFRLPRPPPPEMPESLKKKLGLTQ

Columns and labels:
[1] = molecular target: T1, murine PiC2 (SLC25A3), mitochondrial phosphate carrier / Cu+ transporter (mouse (endogenous in primary myoblasts)) (UniProt Q8VEM8); experiment: co-IP; extracts of proliferating and differentiating primary myoblasts grown with or without CuSO4; IP lysis buffer (50 mM Tris-HCl pH 7.5, 150 mM NaCl, 1% Nonidet P-40, 0.5% sodium deoxycholate); anti-PiC2 or anti-COX1 antibody, 4°C 2 h, protein A/G magnetic beads overnight; western blot
T1 sequence: B2 chain

[2] = molecular target: cytochrome c oxidase subunit COX1 (mouse (endogenous in primary myoblasts)) (UniProt P00397); experiment: as above
[3] = molecular target: human PiC2 isoform A, N-terminal hexa-histidine tag (human) (UniProt Q00325); experiment: western blot of the purified recombinant protein; recombinant His-tagged PiC2A and PiC2B detected with anti-PiC2 and anti-His tag antibodies; both purified

Molecule	binding [1]	also measured
cytochrome c oxidase subunit COX1 (from UniProt P00397 1-514)	binds	–
B1	binds	–
B2	–	binding [2]: binds
B3	–	binding [3]: binds
